No constants are given. Whether binding was seen depends on the method and setting. In cells and extracts the contact can be indirect. Some binding calls cover weakened binding; strength is not graded here.

In the test the target is T1, Epe1-8xHA (fission yeast) (UniProt O94603).
T1 sequence: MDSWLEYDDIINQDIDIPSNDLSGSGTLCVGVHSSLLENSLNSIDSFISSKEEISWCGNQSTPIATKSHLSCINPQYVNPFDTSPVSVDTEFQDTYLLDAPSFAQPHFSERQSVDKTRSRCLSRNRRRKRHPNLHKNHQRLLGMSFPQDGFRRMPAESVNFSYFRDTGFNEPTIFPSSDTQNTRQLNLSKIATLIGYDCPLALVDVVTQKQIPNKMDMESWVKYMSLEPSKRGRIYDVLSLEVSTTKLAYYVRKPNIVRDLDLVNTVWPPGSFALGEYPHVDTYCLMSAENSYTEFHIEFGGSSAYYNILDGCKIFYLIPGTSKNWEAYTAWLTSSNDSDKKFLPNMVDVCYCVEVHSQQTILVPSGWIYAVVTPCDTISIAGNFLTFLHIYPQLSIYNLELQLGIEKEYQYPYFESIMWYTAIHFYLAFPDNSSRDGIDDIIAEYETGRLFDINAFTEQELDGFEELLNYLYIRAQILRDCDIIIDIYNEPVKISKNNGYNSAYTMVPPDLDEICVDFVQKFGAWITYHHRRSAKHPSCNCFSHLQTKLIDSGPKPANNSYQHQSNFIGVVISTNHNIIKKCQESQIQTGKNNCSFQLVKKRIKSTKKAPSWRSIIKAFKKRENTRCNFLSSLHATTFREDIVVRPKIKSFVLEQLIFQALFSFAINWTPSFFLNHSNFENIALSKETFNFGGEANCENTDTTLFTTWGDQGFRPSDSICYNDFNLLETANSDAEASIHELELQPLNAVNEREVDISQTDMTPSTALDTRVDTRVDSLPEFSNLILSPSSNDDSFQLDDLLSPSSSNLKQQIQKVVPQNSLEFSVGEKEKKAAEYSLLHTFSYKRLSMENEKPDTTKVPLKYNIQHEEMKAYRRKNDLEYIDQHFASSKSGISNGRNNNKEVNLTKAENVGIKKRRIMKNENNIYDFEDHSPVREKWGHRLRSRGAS
The experiment in a line: co-IP; lysate of fission yeast cells grown 10 h in YES; anti-HA antibody then protein A/G PLUS-agarose beads for 6 h; washed with lysis buffer; Western blot of phosphorylated Ssp2. (In general: In western blotting, separated proteins are transferred to a membrane and probed.)

B1: phosphorylated Ssp2 (AMPK alpha subunit) (protein, UniProt O74536 1-576)
chain: MQPQEVDLMENSTMRNGARVLPPEAISKRHIGPYIIRETLGEGSFGKVKLATHYKTQQKVALKFISRQLLKKSDMHMRVEREISYLKLLRHPHIIKLYDVITTPTDIVMVIEYAGGELFDYIVEKKRMTEDEGRRFFQQIICAIEYCHRHKIVHRDLKPENLLLDDNLNVKIADFGLSNIMTDGNFLKTSCGSPNYAAPEVINGKLYAGPEVDVWSCGIVLYVMLVGRLPFDDEFIPNLFKKVNSCVYVMPDFLSPGAQSLIRRMIVADPMQRITIQEIRRDPWFNVNLPDYLRPMEEVQGSYADSRIVSKLGEAMGFSEDYIVEALRSDENNEVKEAYNLLHENQVIQEKSHLSKSKRVDSFLSVSPPAFSEYTSELQKKSKQELIDPTLEGPRWTVSDPPTYAKQTIDSNICVLVPTAEKNKLEMRTLADAASAVDTSQSTRKKSRRNKWHFGVRCRGDAPEILLAVYRALQRAGAQFTVPKPVNGKYRSDMYTIKSRWEIPHCKREGKNTYAYIELQLYEVMPGCFMLDVKSNGYKDIYSHPERTADHGMDDLKSSFPFLDLCAMLVCKLFSA
modifications: phosphothreonine at 189
On to B1, for which the binding entry is listed as “binds”.

The values are drawn from article PMC5466600.
